Assay results: publication PMC6547613
Read-outs that look alike come from different tables or passages of the source. Results are given in words; binding and its absence hold for the method and conditions named. Binding seen in cells or lysates may run through a third protein. Some entries that bind do so weakly or less than the wild type. For part of these data: Where a sequence is shown, tags or fusion partners need not be part of it.

Chains of the proteins cited; added tags and fusions are not shown. Lines headed by an entry give the natural chain unless they say otherwise; changes in a name come on top. A line that says so, or that is headed by a name, gives the form on record, which may keep a tag or linker.
myc-tagged PMLIV (doxycycline-inducible, MDA-MB-231 PMLIV OE cells) (P29590-5, form named): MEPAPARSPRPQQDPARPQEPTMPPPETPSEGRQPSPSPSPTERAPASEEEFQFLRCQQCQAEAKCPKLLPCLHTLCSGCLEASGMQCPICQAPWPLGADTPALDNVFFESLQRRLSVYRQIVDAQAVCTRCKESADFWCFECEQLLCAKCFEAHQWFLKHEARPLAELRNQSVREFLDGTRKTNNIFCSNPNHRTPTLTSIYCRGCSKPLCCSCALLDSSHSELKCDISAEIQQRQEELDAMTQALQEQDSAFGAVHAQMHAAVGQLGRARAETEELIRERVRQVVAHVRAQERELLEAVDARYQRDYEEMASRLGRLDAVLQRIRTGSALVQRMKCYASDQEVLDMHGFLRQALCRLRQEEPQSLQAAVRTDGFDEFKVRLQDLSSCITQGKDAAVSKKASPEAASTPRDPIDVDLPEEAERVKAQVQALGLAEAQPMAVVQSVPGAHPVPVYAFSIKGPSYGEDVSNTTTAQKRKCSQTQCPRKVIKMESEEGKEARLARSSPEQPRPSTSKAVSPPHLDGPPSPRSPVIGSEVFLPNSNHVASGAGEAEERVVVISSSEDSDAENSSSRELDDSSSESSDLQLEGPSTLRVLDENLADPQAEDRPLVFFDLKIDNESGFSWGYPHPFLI
UniProt O43524: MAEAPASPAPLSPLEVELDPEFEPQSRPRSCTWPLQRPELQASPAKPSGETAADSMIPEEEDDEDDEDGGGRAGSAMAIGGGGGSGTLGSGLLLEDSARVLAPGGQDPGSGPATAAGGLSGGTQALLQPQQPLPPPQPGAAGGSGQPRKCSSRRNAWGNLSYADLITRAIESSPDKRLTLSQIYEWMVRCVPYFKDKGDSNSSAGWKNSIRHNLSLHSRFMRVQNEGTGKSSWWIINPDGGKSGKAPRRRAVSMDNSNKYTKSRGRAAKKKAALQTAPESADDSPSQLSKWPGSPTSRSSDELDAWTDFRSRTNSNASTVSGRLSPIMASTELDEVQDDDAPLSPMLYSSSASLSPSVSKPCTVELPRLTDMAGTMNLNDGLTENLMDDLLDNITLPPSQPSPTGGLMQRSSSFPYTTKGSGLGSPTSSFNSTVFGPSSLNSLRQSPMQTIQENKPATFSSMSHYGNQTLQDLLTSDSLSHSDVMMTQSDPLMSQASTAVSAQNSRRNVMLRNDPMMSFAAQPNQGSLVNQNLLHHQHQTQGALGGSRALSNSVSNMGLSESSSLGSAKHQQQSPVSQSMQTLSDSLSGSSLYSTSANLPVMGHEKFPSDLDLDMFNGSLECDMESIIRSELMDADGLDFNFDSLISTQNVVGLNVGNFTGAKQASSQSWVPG

What was measured:
mRED-PMLIV (human) [1] = target: mRED-PMLIV (human) (UniProt P29590); test: co-IP; lysates (RIPA buffer) of transiently cotransfected HEK293T cells; 200 ug extract with GFP, FOXM1 or PML antibody overnight at 4 °C, protein G beads 3 h, washes in NETN buffer (250 mM NaCl, 0.5% NP-40); immunoblot
[2] = target: myc-tagged PMLIV (doxycycline-inducible, MDA-MB-231 PMLIV OE cells) (human) (UniProt P29590); test: co-IP; lysates (RIPA buffer) of the MDA-MB-231 PMLIV OE cell line (doxycycline-induced; for FOXO3 also before induction); primary antibody overnight at 4 °C, protein G beads, washes in NETN buffer (250 mM NaCl); immunoblot
GFP-FOXM1 = target: T1, GFP-FOXM1 (UniProt Q08050); test: co-IP; lysates (RIPA buffer) of transiently cotransfected HEK293T cells; 200 ug extract with GFP, FOXM1 or PML antibody overnight at 4 °C, protein G beads 3 h, washes in NETN buffer (250 mM NaCl, 0.5% NP-40); immunoblot
T1 sequence: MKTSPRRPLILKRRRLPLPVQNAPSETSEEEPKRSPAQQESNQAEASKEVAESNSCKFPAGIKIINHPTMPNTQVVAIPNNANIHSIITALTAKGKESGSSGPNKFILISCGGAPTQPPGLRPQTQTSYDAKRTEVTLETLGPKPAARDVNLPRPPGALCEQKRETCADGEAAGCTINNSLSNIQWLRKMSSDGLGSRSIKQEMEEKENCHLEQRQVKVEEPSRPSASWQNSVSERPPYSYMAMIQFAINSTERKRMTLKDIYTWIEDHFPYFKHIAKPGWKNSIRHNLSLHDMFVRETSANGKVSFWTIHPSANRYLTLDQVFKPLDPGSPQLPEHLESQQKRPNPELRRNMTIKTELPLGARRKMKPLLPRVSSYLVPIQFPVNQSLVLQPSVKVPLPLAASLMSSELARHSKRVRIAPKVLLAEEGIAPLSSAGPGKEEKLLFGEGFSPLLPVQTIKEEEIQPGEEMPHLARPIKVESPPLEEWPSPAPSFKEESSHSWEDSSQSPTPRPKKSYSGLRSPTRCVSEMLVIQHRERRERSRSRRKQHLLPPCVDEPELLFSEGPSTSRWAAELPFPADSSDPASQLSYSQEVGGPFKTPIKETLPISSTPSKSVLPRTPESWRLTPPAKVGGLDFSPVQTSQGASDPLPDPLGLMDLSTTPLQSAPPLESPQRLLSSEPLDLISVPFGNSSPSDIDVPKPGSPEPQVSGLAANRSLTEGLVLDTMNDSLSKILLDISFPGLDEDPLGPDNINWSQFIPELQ

[3] = target: PMLIII (mRED fusion) (human) (UniProt P29590); test: as above
mRED-PMLIV (human) [4] = target: mRED-PMLIV (human) (UniProt P29590); test: as above; remark: listed apart in the source
[5] = target: myc-tagged PMLIV (doxycycline-inducible, MDA-MB-231 PMLIV OE cells) (human) (UniProt P29590); test: co-IP; lysates (RIPA buffer) of the MDA-MB-231 PMLIV OE cell line (doxycycline-induced; for FOXO3 also before induction); primary antibody overnight at 4 °C, protein G beads, washes in NETN buffer (250 mM NaCl); immunoblot; remark: listed apart in the source

Molecule: FOXO3 (dsRED monomer fusion) (from UniProt O43524 1-673)
- binding (mRED-PMLIV (human) [1]): binds

Molecule: endogenous FOXO3 (MDA-MB-231) (from UniProt O43524 1-673)
- binding [2]: binds

Molecule: mRED-PMLIV (from UniProt P29590-5 1-633)
- binding (GFP-FOXM1): binds

B1: GFP-FOXM1 (protein, UniProt Q08050-1 1-763)
chain: MKTSPRRPLILKRRRLPLPVQNAPSETSEEEPKRSPAQQESNQAEASKEVAESNSCKFPAGIKIINHPTMPNTQVVAIPNNANIHSIITALTAKGKESGSSGPNKFILISCGGAPTQPPGLRPQTQTSYDAKRTEVTLETLGPKPAARDVNLPRPPGALCEQKRETCADGEAAGCTINNSLSNIQWLRKMSSDGLGSRSIKQEMEEKENCHLEQRQVKVEEPSRPSASWQNSVSERPPYSYMAMIQFAINSTERKRMTLKDIYTWIEDHFPYFKHIAKPGWKNSIRHNLSLHDMFVRETSANGKVSFWTIHPSANRYLTLDQVFKPLDPGSPQLPEHLESQQKRPNPELRRNMTIKTELPLGARRKMKPLLPRVSSYLVPIQFPVNQSLVLQPSVKVPLPLAASLMSSELARHSKRVRIAPKVLLAEEGIAPLSSAGPGKEEKLLFGEGFSPLLPVQTIKEEEIQPGEEMPHLARPIKVESPPLEEWPSPAPSFKEESSHSWEDSSQSPTPRPKKSYSGLRSPTRCVSEMLVIQHRERRERSRSRRKQHLLPPCVDEPELLFSEGPSTSRWAAELPFPADSSDPASQLSYSQEVGGPFKTPIKETLPISSTPSKSVLPRTPESWRLTPPAKVGGLDFSPVQTSQGASDPLPDPLGLMDLSTTPLQSAPPLESPQRLLSSEPLDLISVPFGNSSPSDIDVPKPGSPEPQVSGLAANRSLTEGLVLDTMNDSLSKILLDISFPGLDEDPLGPDNINWSQFIPELQ
- binding [3]: binds weakly
- binding (mRED-PMLIV (human) [4]): binds

B2: endogenous FOXM1 (MDA-MB-231) (protein, UniProt Q08050 1-763)
chain: MKTSPRRPLILKRRRLPLPVQNAPSETSEEEPKRSPAQQESNQAEASKEVAESNSCKFPAGIKIINHPTMPNTQVVAIPNNANIHSIITALTAKGKESGSSGPNKFILISCGGAPTQPPGLRPQTQTSYDAKRTEVTLETLGPKPAARDVNLPRPPGALCEQKRETCADGEAAGCTINNSLSNIQWLRKMSSDGLGSRSIKQEMEEKENCHLEQRQVKVEEPSRPSASWQNSVSERPPYSYMAMIQFAINSTERKRMTLKDIYTWIEDHFPYFKHIAKPGWKNSIRHNLSLHDMFVRETSANGKVSFWTIHPSANRYLTLDQVFKPLDPGSPQLPEHLESQQKRPNPELRRNMTIKTELPLGARRKMKPLLPRVSSYLVPIQFPVNQSLVLQPSVKVPLPLAASLMSSELARHSKRVRIAPKVLLAEEGIAPLSSAGPGKEEKLLFGEGFSPLLPVQTIKEEEIQPGEEMPHLARPIKVESPPLEEWPSPAPSFKEESSHSWEDSSQSPTPRPKKSYSGLRSPTRCVSEMLVIQHRERRERSRSRRKQHLLPPCVDEPELLFSEGPSTSRWAAELPFPADSSDPASQLSYSQEVGGPFKTPIKETLPISSTPSKSVLPRTPESWRLTPPAKVGGLDFSPVQTSQGASDPLPDPLGLMDLSTTPLQSAPPLESPQRLLSSEPLDLISVPFGNSSPSDIDVPKPGSPEPQVSGLAANRSLTEGLVLDTMNDSLSKILLDISFPGLDEDPLGPDNINWSQFIPELQ
- binding [5]: binds
